Measured data: PubChem BioAssay AID743121 (NCATS, 2013)
Aim: 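Partners whose loss is lethal together with topoisomerase I blockade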 (primary screen). Cell system: MDA-MB-231 cells, a human breast cancer line. Reagent: single siRNA against human genes, 20 nM siRNA (0.8 pmol per well). Time to read-out: 120 h (drug added 48 h after transfection, read 72 h later). Challenge: camptothecin 20 nM (about EC30) for 72 h; vehicle 0.1% DMSO in parallel plates. Measured: 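Cell viability by ATP luminescence (CellTiter-Glo) as % of non-targeting siRNA wells, and the log2 ratio of viability without drug over viability with camptothecin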. Reading the numbers: log2 vehicle/camptothecin viability: higher = stronger sensitisation to camptothecin; viability with camptothecin: higher = more viable cells. Active means: 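Each gene scored by redundant siRNA activity (RSA) over its individual siRNA ratios; a gene is called active at p < 0.001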.
In all, the deposit lists about 26,000 reagents; below is a part drawn at random. Of all reagents, 167 (0.63%) are marked active. 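Calls are per gene from RSA p-values that are not deposited; an individual active-marked siRNA can sensitise only weakly.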 A number with no mark means an inactive call. Reagents against one gene are numbered here. Further read-outs or replicates are left out here. No sequences are given here.

Target gene	reagent no.	log2 vehicle/camptothecin viability	viability with camptothecin (% of control)
OR51B2	1	-0.263	101
OR51B2	2	0.189	84.5
OR51B2	3	-0.408	110
OR51B2	4	-0.0469	59.5
STAT6	1	-0.165	55.9
STAT6	2	-0.251	60.4
STAT6	3	-0.0941	98.1
STAT6	4	-0.31	79.1
HEATR5A	1	-0.313	86.6
HEATR5A	2	-0.0379	68.5
HEATR5A	3	-0.71	91.1
HEATR5A	4	-0.109	105
TSPO2	1	-0.203	65.8
TSPO2	2	-0.303	58
TSPO2	3	-0.113	44.6
TSPO2	4	-0.307	116
EDN2	1	-0.252	105
EDN2	2	-0.268	71.2
EDN2	3	-0.0891	44.4
EDN2	4	0.139	85.7
PPP1R3D	1	0.869	48.4
PPP1R3D	2	-0.152	91.3
PPP1R3D	3	-0.785	69
PPP1R3D	4	-0.291	101
HCN1	1	-0.701	90.6
HCN1	2	-0.143	106
HCN1	3	-0.14	72.1
PROP1	1	-0.435	76.5
PROP1	2	-0.156	109
PROP1	3	-0.263	62
PROP1	4	-0.35	79.9
